This experiment has as its target toll-like receptor (TLR) 2 (mouse (endogenous in mouse heart)) (UniProt Q9QUN7). Briefly: co-IP; heart homogenates in 1x RIPA buffer with PMSF and protease inhibitors; HMGB1 or TLR2 antibody (2 ug) in 700 ul lysate, Protein A/G PLUS-Agarose, 4°C, 5 washes with RIPA, immunoblot; mice treated beforehand with saline, or Dox and IgG, TLR2Ab or TLR4Ab. Background: Immunoblotting shows a protein as a band on a membrane.

Sequences of proteins named here, by UniProt entry; tags and fusion partners are left off. Residues count along the entry.
UniProt Q9QUN7, residues 25-784: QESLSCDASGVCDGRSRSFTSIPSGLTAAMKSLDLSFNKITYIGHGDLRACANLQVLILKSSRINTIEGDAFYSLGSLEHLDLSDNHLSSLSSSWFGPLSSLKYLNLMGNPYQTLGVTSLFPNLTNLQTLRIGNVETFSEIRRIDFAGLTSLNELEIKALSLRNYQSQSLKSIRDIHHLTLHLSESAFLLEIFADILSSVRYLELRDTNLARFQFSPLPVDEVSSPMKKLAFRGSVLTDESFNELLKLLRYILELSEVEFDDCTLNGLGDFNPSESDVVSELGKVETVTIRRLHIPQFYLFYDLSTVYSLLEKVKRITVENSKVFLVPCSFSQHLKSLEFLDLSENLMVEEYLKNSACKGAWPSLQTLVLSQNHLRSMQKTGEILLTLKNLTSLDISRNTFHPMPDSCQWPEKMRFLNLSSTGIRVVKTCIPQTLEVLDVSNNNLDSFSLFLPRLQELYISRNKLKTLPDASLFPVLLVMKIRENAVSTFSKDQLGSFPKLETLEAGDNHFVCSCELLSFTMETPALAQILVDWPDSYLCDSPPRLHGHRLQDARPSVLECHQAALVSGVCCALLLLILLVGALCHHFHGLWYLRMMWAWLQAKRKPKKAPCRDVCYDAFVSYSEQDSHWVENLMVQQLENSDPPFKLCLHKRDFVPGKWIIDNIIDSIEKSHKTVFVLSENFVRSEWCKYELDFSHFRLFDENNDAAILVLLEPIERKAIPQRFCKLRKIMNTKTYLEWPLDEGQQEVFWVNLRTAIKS
UniProt P63158: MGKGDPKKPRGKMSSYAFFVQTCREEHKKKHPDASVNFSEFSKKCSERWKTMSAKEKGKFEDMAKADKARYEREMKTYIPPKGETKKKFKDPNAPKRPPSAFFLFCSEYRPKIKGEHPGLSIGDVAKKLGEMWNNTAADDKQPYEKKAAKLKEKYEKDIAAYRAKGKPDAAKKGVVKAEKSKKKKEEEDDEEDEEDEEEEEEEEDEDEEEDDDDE

These are yes or no findings as the source states them, for the method shown. In cells and extracts the contact can be indirect. Some entries that bind do so weakly or less than the wild type.

On to “high mobility group box (HMGB)1 (from UniProt P63158 1-215) (ligand)”, for which the binding entry is reported as “binds”.
